Data published in paper PMC11109203.
Results are given in words; binding and its absence hold for the method and conditions named. For part of these data: In cells and extracts the contact can be indirect. Some entries that bind do so weakly or less than the wild type. For part of these data: Where a sequence is shown, tags or fusion partners need not be part of it.

By UniProt entry, the sequences of proteins in these tests, tags left out. Where a name states a change or a piece, a line headed by the entry shows the natural chain unless it says otherwise. Chains listed by the source or under a name are the forms on record and can include a tag or linker.
UniProt Q09825: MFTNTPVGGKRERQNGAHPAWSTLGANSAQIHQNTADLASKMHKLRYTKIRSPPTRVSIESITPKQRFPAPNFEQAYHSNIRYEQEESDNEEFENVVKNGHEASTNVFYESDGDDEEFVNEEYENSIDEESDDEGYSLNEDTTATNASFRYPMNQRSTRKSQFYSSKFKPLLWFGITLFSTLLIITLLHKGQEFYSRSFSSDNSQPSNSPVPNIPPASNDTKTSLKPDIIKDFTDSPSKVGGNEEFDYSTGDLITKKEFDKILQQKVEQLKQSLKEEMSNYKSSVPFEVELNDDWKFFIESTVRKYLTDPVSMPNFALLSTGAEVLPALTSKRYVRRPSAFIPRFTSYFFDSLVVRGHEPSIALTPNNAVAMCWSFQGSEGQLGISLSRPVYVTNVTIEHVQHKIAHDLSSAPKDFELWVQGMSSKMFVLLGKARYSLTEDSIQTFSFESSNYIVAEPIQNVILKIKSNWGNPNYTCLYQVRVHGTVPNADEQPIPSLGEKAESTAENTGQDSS
Sad1_(1-169)-5R (Q09825, form named): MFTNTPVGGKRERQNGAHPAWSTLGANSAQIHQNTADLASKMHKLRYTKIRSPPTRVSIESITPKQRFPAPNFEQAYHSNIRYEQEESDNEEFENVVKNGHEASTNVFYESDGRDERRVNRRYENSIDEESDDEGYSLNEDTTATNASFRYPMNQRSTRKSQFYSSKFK

Columns and labels:
Bqt4-GFP (S. pombe) = biological target: T1, Bqt4-GFP (S. pombe) (UniProt O60158); assay: co-IP; S. pombe cell extracts of cells carrying Sad1-HA with Bqt4-GFP or Cnp20-TAP (controls, Supplementary Fig. 2)
T1 sequence: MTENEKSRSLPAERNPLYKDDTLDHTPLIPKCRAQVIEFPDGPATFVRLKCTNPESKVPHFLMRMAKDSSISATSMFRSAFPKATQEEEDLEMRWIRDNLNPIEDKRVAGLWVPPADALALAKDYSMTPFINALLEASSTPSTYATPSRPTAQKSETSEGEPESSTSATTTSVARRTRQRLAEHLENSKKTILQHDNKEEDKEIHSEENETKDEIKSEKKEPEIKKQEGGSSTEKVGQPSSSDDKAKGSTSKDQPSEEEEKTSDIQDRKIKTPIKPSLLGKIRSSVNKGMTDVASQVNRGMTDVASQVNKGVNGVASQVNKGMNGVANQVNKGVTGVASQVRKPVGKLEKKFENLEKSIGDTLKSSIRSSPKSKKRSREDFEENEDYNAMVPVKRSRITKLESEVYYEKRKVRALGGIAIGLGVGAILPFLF

Cnp20-TAP (S. pombe) = biological target: T2, Cnp20-TAP (S. pombe) (UniProt Q9HGK9); assay: as above
T2 sequence: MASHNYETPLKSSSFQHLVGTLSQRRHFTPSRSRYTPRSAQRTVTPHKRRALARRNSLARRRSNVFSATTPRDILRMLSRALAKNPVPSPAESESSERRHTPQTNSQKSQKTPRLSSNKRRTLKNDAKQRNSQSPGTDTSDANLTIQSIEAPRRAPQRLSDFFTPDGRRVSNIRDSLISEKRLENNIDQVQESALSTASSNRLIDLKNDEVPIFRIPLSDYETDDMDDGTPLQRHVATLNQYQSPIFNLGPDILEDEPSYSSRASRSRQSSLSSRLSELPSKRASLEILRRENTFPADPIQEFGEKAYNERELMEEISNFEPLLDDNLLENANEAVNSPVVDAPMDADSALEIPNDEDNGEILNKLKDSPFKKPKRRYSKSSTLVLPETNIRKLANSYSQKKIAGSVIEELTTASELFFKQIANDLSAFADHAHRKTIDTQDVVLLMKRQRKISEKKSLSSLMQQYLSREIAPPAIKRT

[1] = biological target: T3, FITC labeled Clr3 (S. pombe) (UniProt P56523); assay: MST; Monolith NT.115; 25 mM HEPES pH 7.5, 150 mM NaCl, 2 mM DTT; 20 nM FITC labeled Clr3; ligands (500 μM Sad1_(1-169) or 250 μM Sad1_(1-169)-H2AB complex) diluted by 12 gradients; medium MST power, 80% LED; both purified
T3 sequence (chain, FITC label): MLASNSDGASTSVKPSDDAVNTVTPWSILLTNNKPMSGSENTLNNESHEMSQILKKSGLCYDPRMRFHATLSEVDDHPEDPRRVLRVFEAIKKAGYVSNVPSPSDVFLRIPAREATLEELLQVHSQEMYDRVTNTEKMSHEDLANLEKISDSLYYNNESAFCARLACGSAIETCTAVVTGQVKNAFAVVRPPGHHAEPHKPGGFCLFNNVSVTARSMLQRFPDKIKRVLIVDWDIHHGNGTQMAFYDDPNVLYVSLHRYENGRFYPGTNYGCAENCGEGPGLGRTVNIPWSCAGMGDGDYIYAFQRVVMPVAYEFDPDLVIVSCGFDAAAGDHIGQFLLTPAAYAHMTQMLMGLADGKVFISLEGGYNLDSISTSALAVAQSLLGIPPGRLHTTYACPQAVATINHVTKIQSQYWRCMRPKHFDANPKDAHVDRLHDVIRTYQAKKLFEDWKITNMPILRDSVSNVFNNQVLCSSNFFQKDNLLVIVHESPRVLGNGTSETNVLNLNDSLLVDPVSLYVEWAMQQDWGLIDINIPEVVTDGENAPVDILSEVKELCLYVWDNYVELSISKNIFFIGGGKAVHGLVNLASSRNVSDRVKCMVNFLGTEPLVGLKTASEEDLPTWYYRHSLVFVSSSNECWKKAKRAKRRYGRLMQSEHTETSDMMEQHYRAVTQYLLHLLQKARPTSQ

Row | Substance | binding (Bqt4-GFP (S. pombe)) | binding (Cnp20-TAP (S. pombe)) | binding [1]
1 | Sad1-HA (from UniProt Q09825 1-514) | binds | no binding | 
2 | Sad1_(1-169)-5R (from UniProt Q09825 1-169) (domain or fragment) |  |  | binds
